No constants are given. Whether binding was seen depends on the method and setting. Some results given as binding are weak or reduced against the parent protein; the word gives no strength.
How the values were obtained:
[1] = target: T1, human Leucine-Rich Repeat-Containing Protein 33 (LRRC33) (human) (UniProt Q86YC3); assay: FACS on THP-1 cells, with or without PMA
T1 sequence: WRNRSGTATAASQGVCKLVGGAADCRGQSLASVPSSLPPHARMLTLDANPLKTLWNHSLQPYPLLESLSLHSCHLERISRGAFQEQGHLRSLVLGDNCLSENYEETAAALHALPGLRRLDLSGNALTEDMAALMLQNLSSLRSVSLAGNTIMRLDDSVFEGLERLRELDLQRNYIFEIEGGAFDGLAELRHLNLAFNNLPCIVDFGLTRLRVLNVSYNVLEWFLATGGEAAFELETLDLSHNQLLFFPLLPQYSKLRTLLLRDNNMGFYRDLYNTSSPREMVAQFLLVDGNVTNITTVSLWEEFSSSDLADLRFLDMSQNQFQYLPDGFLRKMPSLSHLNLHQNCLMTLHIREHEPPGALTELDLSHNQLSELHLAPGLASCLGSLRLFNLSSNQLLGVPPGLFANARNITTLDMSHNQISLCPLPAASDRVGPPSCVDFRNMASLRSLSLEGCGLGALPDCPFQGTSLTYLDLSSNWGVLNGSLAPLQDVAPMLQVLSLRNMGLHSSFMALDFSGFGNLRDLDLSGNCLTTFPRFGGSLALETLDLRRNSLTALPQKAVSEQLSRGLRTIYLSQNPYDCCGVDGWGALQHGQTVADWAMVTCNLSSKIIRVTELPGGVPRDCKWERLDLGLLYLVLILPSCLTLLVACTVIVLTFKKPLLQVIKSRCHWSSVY

[2] = target: LRRC33/GARP chimera 33-32-X5 (human) (UniProt Q14392); assay: FACS on 293T transfectants co-expressing proTGF-β1
[3] = target: human LRRC33 complexed with pro-TGF-β1 (human) (UniProt Q86YC3); assay: FACS on 293T transfectants co-expressing proTGF-β1
[4] = target: T1, human Leucine-Rich Repeat-Containing Protein 33 (LRRC33) (human); assay: immunoprecipitation from L1.2 transfectant lysates, blot
[5] = target: T1, human Leucine-Rich Repeat-Containing Protein 33 (LRRC33) (human); assay: FACS on 293T transfectants
[6] = target: human LRRC33 complexed with pro-TGF-β1 (human) (UniProt Q86YC3); assay: FACS on 293T transfectants
[7] = target: human LRRC33 complexed with pro-TGF-β1 (human) (UniProt Q86YC3); assay: immunoprecipitation from 293T co-transfectant lysates; FACS on co-transfectants

Measured: binding

B1: anti-LRRC33 monoclonal antibody (mAb) (antibody, V domains shown)
VH: EFQLQQSGPELVKPGASVKMSCKASGYSFTDSYMDWVKQSNGKTLEWIGLINPKYGTTTYNQKFKGKATLTVDQSSSTAYMQLNSLTSEDSAVYFCASLYYDYSAWFAYWGQGTLVTVSA
VL: QAVVTQESALTTSPGETVTLTCRSSTGAVTTSNYANWVQEKPDHLFTGLIGGTNNRAPGVPARFSGSLIGDKAALIITGAQTEDEAIYFCGLWFSNRWVFGGGTKLTVV
notes: Mouse hybridoma mAb raised in Lrrc33-/- mice against L1.2 cells expressing the 33-32-X1 chimera; also called anti-LRRC33 mAb; anti-LRRC33 antibody
binds: all assays above

From patent US20190270798A1 (CHILDREN S MEDICAL CENTER, published 2019)
